Patent US11813267B2, “DNA-PK inhibitors” (Vertex Pharmaceuticals Incorporated, priority 2013, dated 2023)
Some entries share one result that the patent states for a list of compounds.

By UniProt entry, the sequences of proteins in these tests, tags left out.
UniProt P78527, whole entry: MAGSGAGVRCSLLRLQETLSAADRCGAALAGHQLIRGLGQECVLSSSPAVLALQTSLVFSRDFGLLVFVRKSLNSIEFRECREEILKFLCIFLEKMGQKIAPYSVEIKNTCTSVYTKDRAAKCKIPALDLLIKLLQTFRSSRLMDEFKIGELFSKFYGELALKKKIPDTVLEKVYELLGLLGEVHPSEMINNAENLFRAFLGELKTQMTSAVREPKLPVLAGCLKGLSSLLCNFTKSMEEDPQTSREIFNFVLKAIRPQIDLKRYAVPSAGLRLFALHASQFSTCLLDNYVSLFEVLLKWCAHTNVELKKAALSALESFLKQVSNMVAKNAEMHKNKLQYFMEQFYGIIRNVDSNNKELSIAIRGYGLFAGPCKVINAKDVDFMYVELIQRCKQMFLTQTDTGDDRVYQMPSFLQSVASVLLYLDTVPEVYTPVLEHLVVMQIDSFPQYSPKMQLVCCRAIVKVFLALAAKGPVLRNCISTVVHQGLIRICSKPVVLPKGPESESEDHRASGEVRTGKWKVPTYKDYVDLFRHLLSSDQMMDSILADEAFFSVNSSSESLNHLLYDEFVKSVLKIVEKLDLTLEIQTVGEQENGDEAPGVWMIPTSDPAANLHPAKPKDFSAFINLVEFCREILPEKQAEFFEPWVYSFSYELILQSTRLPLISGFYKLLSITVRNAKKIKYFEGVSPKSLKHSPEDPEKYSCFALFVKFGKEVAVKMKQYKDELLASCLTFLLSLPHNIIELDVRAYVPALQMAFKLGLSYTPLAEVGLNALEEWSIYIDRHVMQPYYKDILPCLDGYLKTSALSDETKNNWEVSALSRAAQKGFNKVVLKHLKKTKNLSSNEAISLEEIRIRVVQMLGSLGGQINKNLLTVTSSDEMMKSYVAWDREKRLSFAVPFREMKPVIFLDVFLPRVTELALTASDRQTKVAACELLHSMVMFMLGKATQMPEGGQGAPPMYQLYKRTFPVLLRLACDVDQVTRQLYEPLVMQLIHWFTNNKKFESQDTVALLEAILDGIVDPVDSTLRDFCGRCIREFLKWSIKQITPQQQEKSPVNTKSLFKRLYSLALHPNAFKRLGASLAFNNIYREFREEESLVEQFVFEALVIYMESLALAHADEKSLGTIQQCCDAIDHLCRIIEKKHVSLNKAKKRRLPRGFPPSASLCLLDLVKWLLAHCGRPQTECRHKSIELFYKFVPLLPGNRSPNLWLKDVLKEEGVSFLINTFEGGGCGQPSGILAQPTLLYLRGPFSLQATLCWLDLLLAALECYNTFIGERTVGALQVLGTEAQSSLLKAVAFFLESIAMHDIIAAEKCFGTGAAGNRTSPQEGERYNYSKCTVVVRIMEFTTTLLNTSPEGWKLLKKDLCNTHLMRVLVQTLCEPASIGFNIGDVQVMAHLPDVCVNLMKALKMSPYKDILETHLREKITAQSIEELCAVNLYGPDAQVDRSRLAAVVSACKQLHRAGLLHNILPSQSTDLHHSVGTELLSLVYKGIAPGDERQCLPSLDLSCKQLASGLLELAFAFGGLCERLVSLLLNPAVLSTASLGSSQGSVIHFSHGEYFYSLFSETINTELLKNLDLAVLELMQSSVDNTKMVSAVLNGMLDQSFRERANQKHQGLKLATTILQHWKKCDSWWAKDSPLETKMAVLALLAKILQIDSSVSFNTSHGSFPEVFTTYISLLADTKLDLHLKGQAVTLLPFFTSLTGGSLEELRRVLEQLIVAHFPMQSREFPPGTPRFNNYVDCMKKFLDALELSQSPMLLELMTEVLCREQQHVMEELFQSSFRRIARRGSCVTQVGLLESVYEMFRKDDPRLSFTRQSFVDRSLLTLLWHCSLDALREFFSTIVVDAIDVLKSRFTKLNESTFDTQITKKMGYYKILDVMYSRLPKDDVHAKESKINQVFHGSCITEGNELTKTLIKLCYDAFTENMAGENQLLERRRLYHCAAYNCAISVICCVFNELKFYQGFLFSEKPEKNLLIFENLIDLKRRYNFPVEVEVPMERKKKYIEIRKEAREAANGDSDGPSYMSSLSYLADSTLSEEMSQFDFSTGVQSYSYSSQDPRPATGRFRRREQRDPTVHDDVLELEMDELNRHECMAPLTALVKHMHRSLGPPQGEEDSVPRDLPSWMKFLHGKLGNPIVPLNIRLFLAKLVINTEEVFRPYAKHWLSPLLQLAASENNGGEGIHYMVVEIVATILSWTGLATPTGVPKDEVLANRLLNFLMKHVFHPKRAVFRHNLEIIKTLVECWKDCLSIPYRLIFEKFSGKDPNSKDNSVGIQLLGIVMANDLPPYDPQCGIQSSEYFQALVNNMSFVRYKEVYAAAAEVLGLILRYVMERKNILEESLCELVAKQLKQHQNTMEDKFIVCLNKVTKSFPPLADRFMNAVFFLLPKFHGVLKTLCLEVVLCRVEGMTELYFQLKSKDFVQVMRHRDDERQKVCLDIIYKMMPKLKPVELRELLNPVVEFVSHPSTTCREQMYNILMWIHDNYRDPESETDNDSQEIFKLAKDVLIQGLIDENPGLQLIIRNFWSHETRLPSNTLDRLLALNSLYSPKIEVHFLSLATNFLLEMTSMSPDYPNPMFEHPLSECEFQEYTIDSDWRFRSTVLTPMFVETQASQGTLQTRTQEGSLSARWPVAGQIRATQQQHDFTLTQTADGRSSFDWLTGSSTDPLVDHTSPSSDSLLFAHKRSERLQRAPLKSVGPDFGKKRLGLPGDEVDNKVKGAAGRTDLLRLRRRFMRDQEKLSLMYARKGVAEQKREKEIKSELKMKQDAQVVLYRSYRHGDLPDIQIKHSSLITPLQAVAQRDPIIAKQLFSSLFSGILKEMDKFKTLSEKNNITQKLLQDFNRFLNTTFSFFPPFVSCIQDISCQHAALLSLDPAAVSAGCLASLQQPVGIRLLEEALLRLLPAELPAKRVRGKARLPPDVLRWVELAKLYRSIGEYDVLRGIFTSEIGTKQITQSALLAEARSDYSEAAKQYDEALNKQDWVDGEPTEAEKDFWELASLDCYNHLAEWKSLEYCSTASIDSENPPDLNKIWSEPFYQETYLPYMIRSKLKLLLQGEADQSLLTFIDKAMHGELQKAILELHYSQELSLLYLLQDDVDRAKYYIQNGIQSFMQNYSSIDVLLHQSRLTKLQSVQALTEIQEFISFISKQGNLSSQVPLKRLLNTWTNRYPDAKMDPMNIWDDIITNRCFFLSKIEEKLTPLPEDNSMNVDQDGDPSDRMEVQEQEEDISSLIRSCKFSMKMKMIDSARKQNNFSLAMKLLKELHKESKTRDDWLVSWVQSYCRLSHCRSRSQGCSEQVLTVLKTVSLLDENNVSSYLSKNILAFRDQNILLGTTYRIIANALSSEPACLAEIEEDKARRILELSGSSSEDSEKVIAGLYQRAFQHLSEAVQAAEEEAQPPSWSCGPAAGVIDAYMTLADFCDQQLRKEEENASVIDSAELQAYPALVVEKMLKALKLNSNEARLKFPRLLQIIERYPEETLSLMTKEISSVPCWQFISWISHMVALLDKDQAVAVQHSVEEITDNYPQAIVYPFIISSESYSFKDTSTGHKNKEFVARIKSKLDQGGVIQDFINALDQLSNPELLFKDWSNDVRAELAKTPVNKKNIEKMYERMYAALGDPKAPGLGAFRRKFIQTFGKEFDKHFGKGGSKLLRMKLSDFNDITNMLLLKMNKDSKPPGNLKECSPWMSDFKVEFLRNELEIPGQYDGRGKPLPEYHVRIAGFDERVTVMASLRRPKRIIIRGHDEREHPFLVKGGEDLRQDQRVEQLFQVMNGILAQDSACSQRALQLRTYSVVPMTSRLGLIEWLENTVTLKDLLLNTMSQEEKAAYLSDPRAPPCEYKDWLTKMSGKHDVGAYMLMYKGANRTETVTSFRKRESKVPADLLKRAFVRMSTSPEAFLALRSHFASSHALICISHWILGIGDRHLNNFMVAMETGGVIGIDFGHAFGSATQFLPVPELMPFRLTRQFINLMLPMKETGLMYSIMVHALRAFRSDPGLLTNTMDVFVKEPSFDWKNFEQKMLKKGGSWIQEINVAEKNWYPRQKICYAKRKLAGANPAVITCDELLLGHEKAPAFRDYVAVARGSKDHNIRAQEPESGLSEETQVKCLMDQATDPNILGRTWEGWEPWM

Molecular target: DNA-PK (Homo sapiens, UniProt P78527)
Assay: DNA-PK inhibition assay (standard radiometric 33P-ATP kinase assay)
Type: biochemical
Details: approx. 6 nM DNA-PK, 100 μM ATP, 45 min, competitive tight-binding fit

Compound | Ki [nM] | Ki (listed as compound 3) [nM] | Ki for the inhibition of DNA-PK | Ki (listed as compound 78) [nM]
CC(=O)N[C@H]1CC[C@H](Nc2cc(N3CCOCC3)cc3nccnc23)CC1 [Compound 1] | < 1000 | – | – | –
COc1cccc(CC(=O)N[C@H]2CC[C@H](Nc3cc(N4CCOCC4)cc4nccnc34)CC2)c1 [Compound 2] | < 1000 | – | – | –
CC(C)(C)OC(=O)N[C@H]1CC[C@@H](Nc2cc(N3CCOCC3)cc3nccnc23)CC1 [Compound 3] | < 100 | < 1000 | – | –
CC(=O)N[C@H]1CC[C@@H](Nc2cc(N3CCOCC3)cc3nccnc23)CC1 [Compound 4] | < 1000 | – | – | –
CS(=O)(=O)N[C@H]1CC[C@@H](Nc2cc(N3CCOCC3)cc3nccnc23)CC1 [Compound 5] | < 1000 | – | – | –
c1cnc(N[C@H]2CC[C@@H](Nc3cc(N4CCOCC4)cc4nccnc34)CC2)nc1 [Compound 18, N^1-(7-morpholinoquinoxalin-5-yl)-N^4-(pyrimidin-2-yl)cyclohexane-1,4-diamine] | < 1000 | – | less than 0.10 micromolar | –
COCC(=O)N[C@H]1CC[C@@H](Nc2cc(N3CCOCC3)cc3nccnc23)CC1 [Compound 19] | < 1000 | – | – | –
O=C(N[C@H]1CC[C@@H](Nc2cc(N3CC4CCC(C3)O4)cc3nccnc23)CC1)OC1CCOC1 (stereo partly drawn) [Compound 20] | < 1000 | – | – | –
CCOC(=O)N[C@H]1CC[C@@H](Nc2cc(N3CC4CCC(C3)O4)cc3nccnc23)CC1 [Compound 21] | < 1000 | – | – | –
CCNC(=O)N[C@H]1CC[C@@H](Nc2cc(N3CC4CCC(C3)O4)cc3nccnc23)CC1 [Compound 22, 1-(4-((7-(8-oxa-3-azabicyclo[3.2.1]octan-3-yl)quinoxalin-5-yl)amino)cyclohexyl)-3-ethylurea] | < 1000 | – | – | –
c1cnc(N[C@H]2CC[C@@H](Nc3cc(N4CCOCC4)cc4nonc34)CC2)nc1 [Compound 23, (cis)-N^1-(6-morpholinobenzo[c][1,2,5]oxadiazol-4-yl)-N^4-(pyrimidin-2-yl)cyclohexane-1,4-diamine] | < 1000 | – | less than 0.10 micromolar | –
c1ccc(N[C@H]2CC[C@@H](Nc3cc(N4CCOCC4)cc4nccnc34)CC2)nc1 [Compound 24] | < 1000 | – | less than 0.10 micromolar | –
c1cnc(N[C@H]2CC[C@@H](Nc3cc(N4CCOCC4)cc4nccnc34)CC2)cn1 [Compound 27] | < 1000 | – | less than 0.10 micromolar | –
c1cnc(N[C@H]2CC[C@@H](Oc3cc(N4CCOCC4)cc4nccnc34)CC2)nc1 [Compound 28, N-((cis)-4-((7-morpholinoquinoxalin-5-yl)oxy)cyclohexyl)pyrimidin-2-amine] | < 1000 | – | – | –
O=C(O)c1cnc(N[C@H]2CC[C@@H](Nc3cc(N4CCOCC4)cc4nccnc34)CC2)nc1 [Compound 29] | < 1000 | – | less than 0.10 micromolar | –
c1ncc(N[C@H]2CC[C@@H](Nc3cc(N4CCOCC4)cc4nccnc34)CC2)cn1 [Compound 30] | < 1000 | – | less than 0.10 micromolar | –
COC(=O)c1cnc(N[C@H]2CC[C@@H](Nc3cc(N4CCOCC4)cc4nccnc34)CC2)cn1 [Compound 32] | < 1000 | – | less than 0.10 micromolar | –
c1cnc(N[C@H]2CC[C@@H](Oc3cc(N4CCOCC4)cc4nccnc34)CC2)cn1 [Compound 33] | < 1000 | – | less than 0.10 micromolar | –
c1cnc(O[C@H]2CC[C@H](Oc3cc(N4CCOCC4)cc4nccnc34)CC2)nc1 [Compound 34, 4-(8-(((trans)-4-(pyrimidin-2-yloxy)cyclohexyl)oxy)quinoxalin-6-yl)morpholine] | < 1000 | – | – | –

Compound | Ki [nM] | Ki (listed as compound 3) [nM] | Ki for the inhibition of DNA-PK | Ki (listed as compound 78) [nM]
c1cnc2c(OC3CCC4(CC3)OCCO4)cc(N3CCOCC3)cc2n1 [Compound 35] | < 1000 | – | – | –
C1=C(c2cc(O[C@H]3CC[C@@H](Nc4ncccn4)CC3)c3nccnc3c2)CCOC1 [Compound 36, N-[(cis)-4-[7-(3,6-dihydro-2H-pyran-4-yl)quinoxalin-5-yl]oxycyclohexyl]pyrimidin-2-amine] | < 1000 | – | less than 0.10 micromolar | –
Fc1cnc(N[C@H]2CC[C@@H](Oc3cc(N4CCOCC4)cc4nccnc34)CC2)nc1 [Compound 37] | < 1000 | – | less than 0.10 micromolar | –
c1cnc(N[C@H]2CC[C@H](Oc3cc(N4CCOCC4)cc4nccnc34)CC2)nc1 [Compound 38] | < 1000 | – | – | –
Clc1cc(N[C@H]2CC[C@@H](Oc3cc(N4CCOCC4)cc4nccnc34)CC2)ncn1 [Compound 39] | < 1000 | – | less than 0.10 micromolar | –
Clc1ccc(NC2CCC(Oc3cc(N4CCOCC4)cc4nccnc34)CC2)nn1 (stereo not drawn) [Compound 40] | < 1000 | – | – | –
c1cnc(O[C@H]2CC[C@@H](Oc3cc(N4CCOCC4)cc4nccnc34)CC2)nc1 [Compound 42, 4-(8-(((cis)-4-(pyrimidin-2-yloxy)cyclohexyl)oxy)-quinoxalin-6-yl)morpholine] | < 1000 | – | – | –
N#Cc1cnc(N[C@H]2CC[C@@H](Oc3cc(N4CCOCC4)cc4nccnc34)CC2)nc1 [Compound 44] | < 1000 | – | less than 0.10 micromolar | –
Brc1cnc(N[C@H]2CC[C@@H](Oc3cc(N4CCOCC4)cc4nccnc34)CC2)nc1 [Compound 45] | < 1000 | – | less than 0.10 micromolar | –
c1cnc(O[C@H]2CC[C@@H](Nc3cc(N4CCOCC4)cc4nccnc34)CC2)nc1 [Compound 46] | < 1000 | – | less than 0.10 micromolar | –
COC(=O)[C@H]1CC[C@@H](Oc2cc(N3CCOCC3)cc3nccnc23)CC1 [Compound 47] | < 1000 | – | – | –
O=C(O)[C@H]1CC[C@@H](Oc2cc(N3CCOCC3)cc3nccnc23)CC1 [Compound 48] | < 1000 | – | – | –
Fc1ccnc(N[C@H]2CC[C@@H](Oc3cc(N4CCOCC4)cc4nccnc34)CC2)n1 [Compound 49] | < 1000 | – | less than 0.10 micromolar | –
Fc1nccc(N[C@H]2CC[C@@H](Oc3cc(N4CCOCC4)cc4nccnc34)CC2)n1 [Compound 50] | < 1000 | – | less than 0.10 micromolar | –
Fc1cc(N[C@H]2CC[C@@H](Oc3cc(N4CCOCC4)cc4nccnc34)CC2)ncn1 [Compound 51] | < 1000 | – | less than 0.10 micromolar | –
Cc1cc(C)nc(N[C@H]2CC[C@@H](Oc3cc(N4CCOCC4)cc4nccnc34)CC2)n1 [Compound 52] | < 1000 | – | less than 0.10 micromolar | –
c1cnc(N[C@H]2CC[C@@H](Oc3cc(N4C[C@H]5CC[C@@H](C4)O5)cc4nccnc34)CC2)nc1 [Compound 53] | < 1000 | – | less than 0.10 micromolar | –
COc1cncc(N[C@H]2CC[C@@H](Oc3cc(N4CCOCC4)cc4nccnc34)CC2)n1 [Compound 54] | < 1000 | – | less than 0.10 micromolar | –
N#Cc1ccc(N[C@H]2CC[C@@H](Oc3cc(N4CCOCC4)cc4nccnc34)CC2)nn1 [Compound 55] | < 1000 | – | less than 0.10 micromolar | –

Compound | Ki [nM] | Ki (listed as compound 3) [nM] | Ki for the inhibition of DNA-PK | Ki (listed as compound 78) [nM]
N#Cc1ccc(N[C@H]2CC[C@@H](Oc3cc(N4CCOCC4)cc4nccnc34)CC2)nc1 [Compound 59] | < 1000 | – | less than 0.10 micromolar | –
Fc1ccc(N[C@H]2CC[C@@H](Oc3cc(N4CCOCC4)cc4nccnc34)CC2)nn1 [Compound 60] | < 1000 | – | less than 0.10 micromolar | –
O=C(N[C@H]1CC[C@@H](Oc2cc(N3CCOCC3)cc3nccnc23)CC1)C1CC1 [Compound 61] | < 1000 | – | less than 0.10 micromolar | –
CCCCc1cnc2cc(N3CCOCC3)cc(O[C@H]3CC[C@@H](Nc4ncccn4)CC3)c2n1 [Compound 63] | < 1000 | – | less than 0.10 micromolar | –
CCCCc1cnc2cc(N3CCOCC3)cc(O[C@H]3CC[C@@H](Nc4ncc(Br)cn4)CC3)c2n1 [Compound 64] | < 1000 | – | less than 0.10 micromolar | –
NC(=O)c1cnc(N[C@H]2CC[C@@H](Oc3cc(N4CCOCC4)cc4nccnc34)CC2)nc1 [Compound 65] | < 1000 | – | less than 0.10 micromolar | –
CCOCCOc1cnc(N[C@H]2CC[C@@H](Oc3cc(N4CCOCC4)cc4nccnc34)CC2)nc1 [Compound 66] | < 1000 | – | less than 0.10 micromolar | –
CN(C)c1cnc(N[C@H]2CC[C@@H](Oc3cc(N4CCOCC4)cc4nccnc34)CC2)nc1 [Compound 67] | < 1000 | – | less than 0.10 micromolar | –
O=C(O)c1cnc(N[C@H]2CC[C@@H](Oc3cc(N4CCOCC4)cc4nccnc34)CC2)nc1 [Compound 69] | < 1000 | – | less than 0.10 micromolar | –
CNC(=O)c1cnc(N[C@H]2CC[C@@H](Oc3cc(N4CCOCC4)cc4nccnc34)CC2)nc1 [Compound 71] | < 1000 | – | less than 0.10 micromolar | –
CN(C)C(=O)c1cnc(N[C@H]2CC[C@@H](Oc3cc(N4CCOCC4)cc4nccnc34)CC2)nc1 [Compound 72] | < 1000 | – | less than 0.10 micromolar | –
O=C(N[C@H]1CC[C@@H](Oc2cc(N3CCOCC3)cc3nccnc23)CC1)C1CCOC1 (stereo partly drawn) [Compound 73] | < 1000 | – | – | –
O=C(N[C@H]1CC[C@@H](Oc2cc(N3CCOCC3)cc3nccnc23)CC1)C1COC1 [Compound 77] | < 1000 | – | – | –
CC(=O)N[C@H]1CC[C@@H](Oc2cc(N3CCOCC3)cc3nccnc23)CC1 [Compound 78] | < 100 | – | – | < 1000
CCC(=O)N[C@H]1CC[C@@H](Oc2cc(N3CCOCC3)cc3nccnc23)CC1 [Compound 79] | < 1000 | – | – | –
CCCC(=O)N[C@H]1CC[C@@H](Oc2cc(N3CCOCC3)cc3nccnc23)CC1 [Compound 80] | < 1000 | – | – | –
COCC(=O)N[C@H]1CC[C@@H](Oc2cc(N3CCOCC3)cc3nccnc23)CC1 [Compound 81] | < 1000 | – | – | –
CC(C)CC(=O)N[C@H]1CC[C@@H](Oc2cc(N3CCOCC3)cc3nccnc23)CC1 [Compound 82] | < 1000 | – | – | –
